Results: the supplement of paper PMC10849652
The list shows a part of the results.

Sequences of proteins named here, by UniProt entry; tags and fusion partners are left off. A change or cut given only in a name is not applied to a line headed by its entry.
UniProt P23677, whole entry, looked up: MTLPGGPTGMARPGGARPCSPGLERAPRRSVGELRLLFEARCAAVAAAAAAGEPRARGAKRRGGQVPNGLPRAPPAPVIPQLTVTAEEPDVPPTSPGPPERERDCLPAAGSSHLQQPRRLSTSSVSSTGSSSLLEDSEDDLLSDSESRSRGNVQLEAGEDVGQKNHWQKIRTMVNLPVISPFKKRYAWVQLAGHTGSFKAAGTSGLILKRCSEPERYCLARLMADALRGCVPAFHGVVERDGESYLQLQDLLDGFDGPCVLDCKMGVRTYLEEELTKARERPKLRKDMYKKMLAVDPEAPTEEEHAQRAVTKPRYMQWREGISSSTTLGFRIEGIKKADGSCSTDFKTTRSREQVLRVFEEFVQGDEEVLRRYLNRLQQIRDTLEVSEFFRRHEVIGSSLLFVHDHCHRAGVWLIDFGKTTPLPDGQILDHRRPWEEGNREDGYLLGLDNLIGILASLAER
UniProt Q96SI1: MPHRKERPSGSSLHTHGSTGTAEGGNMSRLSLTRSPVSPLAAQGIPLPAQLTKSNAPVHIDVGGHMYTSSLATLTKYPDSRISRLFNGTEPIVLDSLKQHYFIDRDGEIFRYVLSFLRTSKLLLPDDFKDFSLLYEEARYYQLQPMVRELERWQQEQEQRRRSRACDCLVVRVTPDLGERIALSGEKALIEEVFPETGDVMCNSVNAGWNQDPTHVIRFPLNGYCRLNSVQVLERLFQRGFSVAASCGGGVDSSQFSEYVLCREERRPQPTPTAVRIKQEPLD
UniProt Q8TEX9: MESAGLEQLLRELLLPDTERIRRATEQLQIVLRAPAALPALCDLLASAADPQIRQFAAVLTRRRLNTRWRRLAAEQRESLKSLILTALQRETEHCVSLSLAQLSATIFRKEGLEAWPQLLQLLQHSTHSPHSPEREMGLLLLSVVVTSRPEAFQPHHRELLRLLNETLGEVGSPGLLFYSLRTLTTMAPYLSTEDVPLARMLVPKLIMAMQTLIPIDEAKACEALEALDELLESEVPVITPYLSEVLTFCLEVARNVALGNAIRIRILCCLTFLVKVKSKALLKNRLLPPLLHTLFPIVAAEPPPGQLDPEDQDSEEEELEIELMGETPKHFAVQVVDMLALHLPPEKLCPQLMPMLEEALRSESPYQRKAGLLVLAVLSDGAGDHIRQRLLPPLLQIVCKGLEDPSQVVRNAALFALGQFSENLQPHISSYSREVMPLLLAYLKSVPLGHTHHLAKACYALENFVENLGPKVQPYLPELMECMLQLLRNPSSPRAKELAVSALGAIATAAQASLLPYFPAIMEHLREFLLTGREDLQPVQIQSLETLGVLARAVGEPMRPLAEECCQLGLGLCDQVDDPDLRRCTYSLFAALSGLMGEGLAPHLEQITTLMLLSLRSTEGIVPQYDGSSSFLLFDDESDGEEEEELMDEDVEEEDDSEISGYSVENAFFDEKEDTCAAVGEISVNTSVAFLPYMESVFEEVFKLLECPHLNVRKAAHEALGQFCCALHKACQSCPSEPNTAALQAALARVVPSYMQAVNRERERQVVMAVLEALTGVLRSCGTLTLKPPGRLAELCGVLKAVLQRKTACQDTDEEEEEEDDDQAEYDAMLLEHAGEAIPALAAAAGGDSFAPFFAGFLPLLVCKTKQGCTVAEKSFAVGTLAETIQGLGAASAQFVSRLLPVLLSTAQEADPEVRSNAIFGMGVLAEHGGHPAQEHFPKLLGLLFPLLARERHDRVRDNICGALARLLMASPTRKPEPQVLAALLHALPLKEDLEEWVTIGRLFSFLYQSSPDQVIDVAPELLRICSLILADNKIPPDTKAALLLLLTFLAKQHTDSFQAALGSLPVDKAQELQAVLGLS
UniProt Q96SY0, whole entry, looked up: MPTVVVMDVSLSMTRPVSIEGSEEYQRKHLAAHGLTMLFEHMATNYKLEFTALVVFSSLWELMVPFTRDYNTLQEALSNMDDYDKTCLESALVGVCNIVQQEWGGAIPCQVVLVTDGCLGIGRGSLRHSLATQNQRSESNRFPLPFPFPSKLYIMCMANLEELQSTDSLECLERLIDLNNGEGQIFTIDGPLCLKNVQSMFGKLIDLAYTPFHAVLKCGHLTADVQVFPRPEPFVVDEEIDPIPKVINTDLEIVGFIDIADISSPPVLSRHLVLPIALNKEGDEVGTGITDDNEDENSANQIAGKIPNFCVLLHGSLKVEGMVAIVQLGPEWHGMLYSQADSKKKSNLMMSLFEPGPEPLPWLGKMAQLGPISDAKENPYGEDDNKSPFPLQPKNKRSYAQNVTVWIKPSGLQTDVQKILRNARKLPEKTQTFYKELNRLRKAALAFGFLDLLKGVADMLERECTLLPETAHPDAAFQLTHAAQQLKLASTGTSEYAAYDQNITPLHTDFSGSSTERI
UniProt Q96AB3: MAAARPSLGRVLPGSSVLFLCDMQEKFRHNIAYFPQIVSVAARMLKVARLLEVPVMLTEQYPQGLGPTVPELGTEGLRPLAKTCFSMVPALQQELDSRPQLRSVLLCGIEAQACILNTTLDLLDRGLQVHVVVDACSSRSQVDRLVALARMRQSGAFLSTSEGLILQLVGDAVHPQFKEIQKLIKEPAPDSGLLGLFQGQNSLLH
UniProt Q8IY47: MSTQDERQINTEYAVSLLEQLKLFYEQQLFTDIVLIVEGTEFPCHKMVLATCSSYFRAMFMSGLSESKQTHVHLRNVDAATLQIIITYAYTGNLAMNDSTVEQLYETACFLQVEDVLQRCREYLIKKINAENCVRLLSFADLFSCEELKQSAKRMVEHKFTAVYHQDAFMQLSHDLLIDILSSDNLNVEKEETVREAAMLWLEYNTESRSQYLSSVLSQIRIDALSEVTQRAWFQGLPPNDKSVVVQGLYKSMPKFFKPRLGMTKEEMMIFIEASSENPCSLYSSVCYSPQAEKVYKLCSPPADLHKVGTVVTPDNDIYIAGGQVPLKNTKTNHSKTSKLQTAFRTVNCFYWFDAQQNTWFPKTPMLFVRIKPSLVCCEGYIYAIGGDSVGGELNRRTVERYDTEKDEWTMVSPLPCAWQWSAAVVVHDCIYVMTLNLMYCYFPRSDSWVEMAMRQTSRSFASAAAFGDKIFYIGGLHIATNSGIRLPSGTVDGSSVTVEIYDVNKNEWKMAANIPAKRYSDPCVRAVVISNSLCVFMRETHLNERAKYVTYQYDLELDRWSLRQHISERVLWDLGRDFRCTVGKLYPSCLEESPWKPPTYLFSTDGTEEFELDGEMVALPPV
UniProt P08648, whole entry, looked up: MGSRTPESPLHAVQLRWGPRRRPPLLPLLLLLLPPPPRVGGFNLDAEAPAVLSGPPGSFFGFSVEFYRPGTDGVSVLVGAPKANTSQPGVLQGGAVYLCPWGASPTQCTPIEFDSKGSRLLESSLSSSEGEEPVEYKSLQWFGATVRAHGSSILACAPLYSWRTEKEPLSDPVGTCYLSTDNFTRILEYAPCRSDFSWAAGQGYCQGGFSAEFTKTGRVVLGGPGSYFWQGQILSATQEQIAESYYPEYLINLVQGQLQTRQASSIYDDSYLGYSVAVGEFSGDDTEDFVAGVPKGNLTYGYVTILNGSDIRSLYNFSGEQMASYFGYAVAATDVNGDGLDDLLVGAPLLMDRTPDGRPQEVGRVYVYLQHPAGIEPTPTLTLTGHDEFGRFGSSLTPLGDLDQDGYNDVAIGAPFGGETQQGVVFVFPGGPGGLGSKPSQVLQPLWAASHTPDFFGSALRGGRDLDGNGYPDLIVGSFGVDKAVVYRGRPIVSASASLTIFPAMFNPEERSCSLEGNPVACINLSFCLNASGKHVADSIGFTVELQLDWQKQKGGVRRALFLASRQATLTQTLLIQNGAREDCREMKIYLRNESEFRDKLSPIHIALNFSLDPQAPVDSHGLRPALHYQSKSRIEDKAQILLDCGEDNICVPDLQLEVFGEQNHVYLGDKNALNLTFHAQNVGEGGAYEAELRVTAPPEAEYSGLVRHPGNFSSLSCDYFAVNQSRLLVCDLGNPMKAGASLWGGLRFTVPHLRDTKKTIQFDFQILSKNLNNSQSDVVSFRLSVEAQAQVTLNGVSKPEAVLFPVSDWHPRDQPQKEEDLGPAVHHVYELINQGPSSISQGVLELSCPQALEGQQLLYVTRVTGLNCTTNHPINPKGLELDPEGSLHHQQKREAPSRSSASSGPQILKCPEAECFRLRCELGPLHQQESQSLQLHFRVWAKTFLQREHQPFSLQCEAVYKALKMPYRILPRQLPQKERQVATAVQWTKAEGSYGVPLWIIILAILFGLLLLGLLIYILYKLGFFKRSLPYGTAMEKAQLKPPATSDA
UniProt Q14681: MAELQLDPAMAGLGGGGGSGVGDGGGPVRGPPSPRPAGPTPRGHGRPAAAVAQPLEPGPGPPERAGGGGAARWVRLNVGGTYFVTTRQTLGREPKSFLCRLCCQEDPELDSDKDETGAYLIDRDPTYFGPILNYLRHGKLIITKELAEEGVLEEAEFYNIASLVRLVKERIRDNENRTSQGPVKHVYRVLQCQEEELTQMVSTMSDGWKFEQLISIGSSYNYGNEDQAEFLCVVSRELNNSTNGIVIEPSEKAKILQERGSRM
UniProt Q9H1K1: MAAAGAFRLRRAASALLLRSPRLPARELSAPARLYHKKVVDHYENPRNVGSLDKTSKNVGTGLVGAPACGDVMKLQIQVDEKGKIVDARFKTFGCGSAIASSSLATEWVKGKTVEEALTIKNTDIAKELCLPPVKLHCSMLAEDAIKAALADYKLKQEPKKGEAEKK
UniProt Q9P2N6: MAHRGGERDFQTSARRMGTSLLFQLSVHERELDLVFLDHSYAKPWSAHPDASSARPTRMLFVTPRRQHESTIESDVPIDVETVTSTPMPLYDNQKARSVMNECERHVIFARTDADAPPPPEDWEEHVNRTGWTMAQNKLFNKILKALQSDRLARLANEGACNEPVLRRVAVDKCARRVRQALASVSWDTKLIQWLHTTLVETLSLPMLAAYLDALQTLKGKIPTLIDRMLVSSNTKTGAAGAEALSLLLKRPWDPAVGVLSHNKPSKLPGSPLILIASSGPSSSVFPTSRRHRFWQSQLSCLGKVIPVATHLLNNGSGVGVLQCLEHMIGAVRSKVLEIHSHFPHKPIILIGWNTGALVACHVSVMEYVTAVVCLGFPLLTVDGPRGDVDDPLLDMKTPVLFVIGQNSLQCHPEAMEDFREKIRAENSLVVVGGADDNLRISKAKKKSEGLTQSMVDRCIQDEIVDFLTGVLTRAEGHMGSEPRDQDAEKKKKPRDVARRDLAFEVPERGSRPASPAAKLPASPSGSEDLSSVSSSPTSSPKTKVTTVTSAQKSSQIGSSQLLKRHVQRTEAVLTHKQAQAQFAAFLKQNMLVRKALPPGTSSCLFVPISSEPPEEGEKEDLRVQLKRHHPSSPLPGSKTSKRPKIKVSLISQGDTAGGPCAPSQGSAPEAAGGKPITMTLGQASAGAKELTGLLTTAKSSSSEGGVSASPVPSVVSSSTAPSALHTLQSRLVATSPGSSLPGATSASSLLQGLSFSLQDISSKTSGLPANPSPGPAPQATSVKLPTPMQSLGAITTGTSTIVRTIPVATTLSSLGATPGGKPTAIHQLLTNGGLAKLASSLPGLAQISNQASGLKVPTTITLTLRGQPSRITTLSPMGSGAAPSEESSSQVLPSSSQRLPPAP
UniProt Q6DN90: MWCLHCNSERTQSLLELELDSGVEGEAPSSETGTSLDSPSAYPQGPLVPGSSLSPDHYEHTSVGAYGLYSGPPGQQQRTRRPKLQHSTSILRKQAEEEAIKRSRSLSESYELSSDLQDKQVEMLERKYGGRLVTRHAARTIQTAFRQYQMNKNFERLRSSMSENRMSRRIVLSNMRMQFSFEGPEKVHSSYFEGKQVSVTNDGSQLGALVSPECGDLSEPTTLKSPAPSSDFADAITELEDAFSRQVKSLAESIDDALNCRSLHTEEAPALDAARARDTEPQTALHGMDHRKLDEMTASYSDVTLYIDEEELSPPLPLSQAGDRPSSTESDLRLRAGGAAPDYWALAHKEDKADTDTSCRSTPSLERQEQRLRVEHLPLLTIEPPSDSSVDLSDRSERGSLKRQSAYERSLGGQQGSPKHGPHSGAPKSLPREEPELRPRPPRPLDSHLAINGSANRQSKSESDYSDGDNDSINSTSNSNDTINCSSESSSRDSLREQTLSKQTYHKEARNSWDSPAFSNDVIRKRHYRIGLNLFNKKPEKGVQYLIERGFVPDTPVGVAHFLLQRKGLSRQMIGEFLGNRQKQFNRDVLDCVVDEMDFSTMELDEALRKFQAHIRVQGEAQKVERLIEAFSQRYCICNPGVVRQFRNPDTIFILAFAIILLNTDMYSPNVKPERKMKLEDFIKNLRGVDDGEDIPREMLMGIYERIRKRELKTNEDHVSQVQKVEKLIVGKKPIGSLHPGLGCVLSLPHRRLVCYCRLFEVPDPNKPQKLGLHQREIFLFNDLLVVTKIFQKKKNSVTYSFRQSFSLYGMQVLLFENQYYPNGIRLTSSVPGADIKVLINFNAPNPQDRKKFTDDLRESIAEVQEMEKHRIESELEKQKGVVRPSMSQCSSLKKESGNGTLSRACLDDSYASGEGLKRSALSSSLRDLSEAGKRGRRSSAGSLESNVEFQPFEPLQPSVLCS

The targets below were run with Cn1cc(-c2ccc3c(c2)CCN3C(=O)Cc2cccc(C(F)(F)F)c2)c2c(N)ncnc21 (assay: log2 fold change, soluble protein after heating vs DMSO (PISA); higher = thermal stabilisation; K562 lysate, 10 uM; active = over 0.2 and 3.5 SD of the protein, either way, in both replicates (recomputed)).
Method in brief: (§1)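 Quantification was by TMTpro 16plex LC-MS/MS with equalised channel sums, applied to the supernatant after 21,000xg for 90 min. Samples were crude K562 extract at 1 mg/mL protein in PBS pH 7.4 with 1 mM MgCl2, treated with 10 μM compound for 30 min, heated for 3 min across 48°C-58°C, pooled and brought to 0.5% NP-40 at 4°C. Values are log-two fold changes in thermal stability relative to solvent controls, from duplicates.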

log2 fold change, inactive:
ITPKA (UniProt P23677) -0.002
KCTD15 (UniProt Q96SI1) 0.047
IPO4 isoform 2 (UniProt Q8TEX9) 0.027
IVNS1ABP (UniProt Q9Y6Y0) -0.024
KAT8 (UniProt Q9H7Z6) -0.034
KCMF1 (UniProt Q9P0J7) -0.016
ITGAV (UniProt P06756) -0.004
INTS14 (UniProt Q96SY0) -0.004
ISOC2 (UniProt Q96AB3) 0
KCTD5 (UniProt Q9NXV2) -0.024
ITPK1 (UniProt Q13572) 0.018
KATNAL1 (UniProt Q9BW62) 0.057
INTS9 (UniProt Q9NV88) 0.027
IQGAP1 (UniProt P46940) 0.01
IRGQ (UniProt Q8WZA9) 0.01
ISG15 (UniProt P05161) -0.021
IST1 (UniProt P53990) 0.021
INTS4 (UniProt Q96HW7) -0.007
KBTBD2 (UniProt Q8IY47) 0.028
KBTBD4 isoform 2 (UniProt Q9NVX7) -0.022
KARS1 (UniProt Q15046) 0.02
ITSN2 (UniProt Q9NZM3) -0.011
KATNA1 (UniProt O75449) 0.016
ITGA5 (UniProt P08648) -0.018
KCTD2 (UniProt Q14681) 0.033
ISCU (UniProt Q9H1K1) 0.001
KAT2A (UniProt Q92830) 0.12
JUND (UniProt P17535) 0.001
ITSN1 isoform 8 (UniProt Q15811) 0.023
INTS5 (UniProt Q6P9B9) 0.055
KANSL3 (UniProt Q9P2N6) 0.242
IQSEC1 (UniProt Q6DN90) 0.051
ITPA (UniProt Q9BY32) -0.025
INTS8 (UniProt Q75QN2) 0.021
KDELR2 (UniProt P33947) -0.04
IP6K1 (UniProt Q92551) 0.021
IRF3 (UniProt Q14653) 0.012
IWS1 (UniProt Q96ST2) -0.009
KCNK5 (UniProt O95279) 0.029

The targets below were run with Cn1cc(CNCC2CCN(c3ncc(C(=O)NO)cn3)CC2)c2ccccc21 [quisinostat] in the same assay as above.
Method in brief: as §1

log2 fold change, inactive:
ITPKA (UniProt P23677) -0.026
KCTD15 (UniProt Q96SI1) 0.06
IPO4 isoform 2 (UniProt Q8TEX9) -0.061
IVNS1ABP (UniProt Q9Y6Y0) 0.004
KAT8 (UniProt Q9H7Z6) -0.104
KCMF1 (UniProt Q9P0J7) -0.015
ITGAV (UniProt P06756) -0.012
INTS14 (UniProt Q96SY0) -0.018
ISOC2 (UniProt Q96AB3) -0.053
KCTD5 (UniProt Q9NXV2) 0.019
ITPK1 (UniProt Q13572) -0.051
KATNAL1 (UniProt Q9BW62) 0.083
INTS9 (UniProt Q9NV88) -0.062
IQGAP1 (UniProt P46940) -0.002
IRGQ (UniProt Q8WZA9) 0.009
ISG15 (UniProt P05161) -0.05
IST1 (UniProt P53990) 0.027
INTS4 (UniProt Q96HW7) -0.017
KBTBD2 (UniProt Q8IY47) -0.178
KBTBD4 isoform 2 (UniProt Q9NVX7) -0.038
KARS1 (UniProt Q15046) 0.034
ITSN2 (UniProt Q9NZM3) -0.046
KATNA1 (UniProt O75449) -0.01
ITGA5 (UniProt P08648) -0.035
KCTD2 (UniProt Q14681) -0.061
ISCU (UniProt Q9H1K1) 0.063
KAT2A (UniProt Q92830) -0.227
JUND (UniProt P17535) -0.052
ITSN1 isoform 8 (UniProt Q15811) -0.066
INTS5 (UniProt Q6P9B9) -0.002
KANSL3 (UniProt Q9P2N6) -0.049
IQSEC1 (UniProt Q6DN90) -0.063
ITPA (UniProt Q9BY32) -0.009
INTS8 (UniProt Q75QN2) 0.003
KDELR2 (UniProt P33947) -0.094
IP6K1 (UniProt Q92551) -0.071
IRF3 (UniProt Q14653) -0.029
IWS1 (UniProt Q96ST2) 0.053
KCNK5 (UniProt O95279) 0.047
